{
  "source": "patent US20210077492A1",
  "about": "“METHODS AND COMPOSITIONS OF TREATING PANCREATIC CANCER” (The Trustees of Indiana University, priority 2019, published 2021)",
  "tested_on": "orthotopic xenografts of PDAC with AsPC-1 cells",
  "test": "Orthotopic PDAC xenograft model, tumor growth kinetics",
  "assay_type": "in vivo",
  "conditions": "DAC 0.2 mg/kg three times weekly, 35 days",
  "description": "Orthotopic mouse models with human PDAC cells were generated using NOD/SCID mice. In vivo BLI was conducted on a NiteOwl system and acquisition software. Data were analyzed using eLumenate analysis software. For the primary tumor, signal intensity was quantified as the sum of all detected photon counts within a region of interest selected by an automated maximum entropy method and normalized to the area of that region of interest. For the metastatic region, a region of interest was drawn manually in a “crescent” shape which encompassed all of the abdominal region except the primary tumor and maintained a boundary at least 2 mm away from the ROI for the primary. The signal in the metastatic region was again quantified by dividing the sum of all detected photon counts in the region by the area of the region.\nReferring to FIG. 30, bioluminescent and primary PDAC cell lines ASPC1 and MiPaCa-2 were used to generate PDAC xenografts for therapeutic validation. At 22 days post injection of tumor cells, tumor growth and metastatic dissemination are detected in this orthotopic models in NOD/SCID mice. Referring to FIG. 31, orthotopic xenografts of PDAC with AsPC-1 cells were treated with vehicle control, Tetrahydrouridine (THU, 10 mg/kg), Decitabine (DAC, 0.2 mg/kg), or combination of THU (10 mg/kg) with DAC (0.1 mg/kg) three times weekly. […]",
  "note": "At least one structure is not confirmed: it was looked up by name or label, or the drawing left a doubt.",
  "data": [
    {"smiles": "Nc1ncn([C@H]2C[C@H](O)[C@@H](CO)O2)c(=O)n1", "note": "[DAC, decitabine]", "values": [
      {"measurement": "tumor growth kinetics", "value": "did not affect tumor growth kinetics"}
    ]}
  ]
}
